From paper PMC11224269
These are yes or no findings as the source states them, for the method shown. For some assays here: Binding calls can cover weak binding; strength is not graded here.

Assays:
[1] = target: T1, biotinylated H3 peptide, H3 (44-59) (human); assay: pull-down; in vitro binding assay: biotinylated pY54-H3 or H3 peptide incubated with varying concentration of His-tagged SD peptide, pull-down with streptavidin beads, immunoblot for the His tag; both purified
T1 sequence (peptide, biotinylated at C-terminus): VALREIRRYQKSTE

[2] = target: biotinylated pY54-H3 peptide, pY54-H3 (44-59) (human); assay: as above

Substance: His-tagged SANT domain (52 aa long, SD peptide) (domain or fragment)
- binding [1]: no binding
- binding [2]: binds
